According to PubChem BioAssay AID328 (DTP/NCI, 2004):
The list shows only some results of the screen, not a fair sample: it gathers tests that were run many times, whatever their T/C, doses with no T/C, and many T/C values between a quarter and a half above the control. Further doses and runs are listed elsewhere. T/C is the treated group as % of the vehicle group. Some entries give survivors of the animals treated and no T/C: the source files T/C as zero there, which appears to mark a toxic dose or a test without result, not a measured value. Some doses without a T/C left all or most animals alive at the check, yet need not have been tolerated: the source hardly ever lists a survival T/C far under the control, and the zero likely stands for such cases as well. Counts of survivors are from the toxicity check (mostly the fifth day) where no day follows; animals may have died later. Schedules are NCI's codes, read here as Q, the interval in days (D) or hours (H), X, the number of doses. Some schedule codes hold Z or #, which are not explained here. Some entries hold several experiments; the results are listed from low to high. For survival time, the PubChem record calls one and a half times the control and up active, and a quarter to a half above the control has no call in these data; cut-offs in other NCI protocols can differ. Some T/C values carry the count of animals alive at the toxicity check (mostly the fifth day); without a count, all were alive then.

Test system: BDF1 mice, P388 leukemia ip, median survival T/C
Test: NCI In Vivo Anticancer Drug Screen. Data for tumor model P388 Leukemia (intraperitoneal) in B6D2F1 (BDF1) mice
Conditions: T/C endpoint: median survival time, higher T/C = longer survival
Summary of the method: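 Antitumour effect was judged in vivo: survival in drug-treated mice, normalised to that of vehicle-dosed controls, gives the reported T/C.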

[1] = dose: 400.0 mg/kg/injection, schedule: Q01DX009 (ip), vehicle: saline with Tween-80
[2] = dose: 50.0 mg/kg/injection, schedule: Q01DX009 (ip), vehicle: saline
[3] = dose: 100.0 mg/kg/injection, schedule: Q01DX009 (ip), vehicle: saline
[4] = dose: 200.0 mg/kg/injection, schedule: Q04DX003 (ip), vehicle: saline
[5] = dose: 400.0 mg/kg/injection, schedule: Q04DX003 (ip), vehicle: saline
[6] = dose: 100.0 mg/kg/injection, schedule: Q01DX009 (ip), vehicle: Klucel (hydroxypropylcellulose) (HPC)
[7] = dose: 400.0 mg/kg/injection, schedule: Q01DX009 (ip), vehicle: saline
[8] = dose: 100.0 mg/kg/injection, schedule: Q01DX009 (ip), vehicle: saline with Tween-80
[9] = dose: 200.0 mg/kg/injection, schedule: Q01DX009 (ip), vehicle: saline with Tween-80
[10] = dose: 25.0 mg/kg/injection, schedule: Q01DX009 (ip), vehicle: water
[11] = dose: 50.0 mg/kg/injection, schedule: Q04DX003 (ip), vehicle: water
[12] = dose: 5.0 mg/kg/injection, schedule: Q01DX009 (ip), vehicle: alcohol
[13] = dose: 25.0 mg/kg/injection, schedule: Q01DX010 (ip), vehicle: saline
[14] = dose: 100.0 mg/kg/injection, schedule: Q01DX010 (ip), vehicle: saline
[15] = dose: 200.0 mg/kg/injection, schedule: Q01DX010 (ip), vehicle: saline
[16] = dose: 200.0 mg/kg/injection, schedule: Q01DX009 (ip), vehicle: Klucel (hydroxypropylcellulose) (HPC)

## NNC(=S)SCc1ccccc1
dose: 60.0 mg/kg/injection, schedule: Q01DX009 (ip), vehicle: saline with Tween-80
  survivor count: 3 of 7

## c1ccc(Nc2n[n+](-c3ccccc3)no2)cc1
[1]
  survivor count: 3 of 6

## N/C(=N\O)c1nn(C2OC(CO)C(O)C2O)c2ncnc(N)c12 (stereo unspecified)
[2]
  survivor count: 5 of 6
[3]
  survivor count: 4 of 6
dose: 100.0 mg/kg/injection, schedule: Q04DX003 (ip), vehicle: saline
  T/C: 133 % of control
[4]
  survivor count: 0 of 6
[5]
  survivor count: 0 of 6

## CN(C)C=Nc1ccc2c3c(cccc13)CC2
dose: 66.0 mg/kg/injection, schedule: Q01DX009 (ip), vehicle: Klucel (hydroxypropylcellulose) (HPC)
  survivor count: 2 of 6
[6]
  survivor count: 1 of 6

## CN1c2c(nc(N)[nH]c2=O)NCC1CCNc1ccc(C(=O)NC(CCC(=O)O)C(=O)O)cc1 (stereo unspecified)
dose: 100.0 mg/kg/injection, schedule: Q01DX009 (ip), vehicle: other
  T/C: 127 % of control
dose: 400.0 mg/kg/injection, schedule: Q01DX009 (ip), vehicle: other
  T/C: 127 % of control
[7]
  T/C: 128 % of control

## c1ccc(-c2nn(-c3ccccc3)[n+](-c3cccc4ccccc34)n2)cc1
dose: 8.0 mg/kg/injection, schedule: Q01DX009 (ip), vehicle: saline with Tween-80
  survivor count: 0 of 6

## CCCCNP(=O)(N1CC1C)N1CC1C (stereo unspecified)
dose: 33.0 mg/kg/injection, schedule: Q04DX003 (ip), vehicle: saline
  T/C: 145 % of control
[4]
  survivor count: 5 of 6
[5]
  survivor count: 1 of 6

## C/C(=N\NC(=S)N(C)C)c1ccccn1
dose: 6.25 mg/kg/injection, schedule: Q01DX009 (ip), vehicle: saline with Tween-80
  survivor count: 6 of 6
dose: 50.0 mg/kg/injection, schedule: Q01DX009 (ip), vehicle: saline with Tween-80
  survivor count: 1 of 6
[8]
  survivor count: 0 of 6
[9]
  survivor count: 0 of 6

## NC(=O)/C=C/c1c[nH]c2nccnc12
[10]
  T/C: 144 % of control
dose: 25.0 mg/kg/injection, schedule: Q04DX003 (ip), vehicle: water
  T/C: 125 % of control
dose: 50.0 mg/kg/injection, schedule: Q01DX009 (ip), vehicle: water
  survivor count: 3 of 6
[11]
  T/C: 126 % of control
  survivor count: 5 of 6

## CCN(CC)CC(COC)Oc1cc(C)ccc1C(C)C (stereo unspecified)
[9]
  survivor count: 5 of 6

## CCCCc1ccc(C(=O)O)nc1
[3]
  survivor count: 3 of 6

## Cc1c(N)ncc2ccccc12
[4]
  survivor count: 3 of 6
[5]
  survivor count: 0 of 6

## CC1=CC(=O)c2c(O)ccc(O)c2C1=O
dose: 1.25 mg/kg/injection, schedule: Q01DX009 (ip), vehicle: alcohol
  survivor count: 2 of 6
dose: 2.5 mg/kg/injection, schedule: Q01DX009 (ip), vehicle: alcohol
  T/C: 138 % of control [5 of 6 alive]
[12]
  T/C: 125 % of control
  survivor count: 1 of 6
dose: 10.0 mg/kg/injection, schedule: Q01DX009 (ip), vehicle: alcohol
  survivor count: 0 of 6 and 1 of 6

## CCN(CC)C(N)=Nc1ccc(NC(=O)c2ccc(C(=O)Nc3ccc(N=C(N)N(CC)CC)cc3)cc2)cc1
dose: 1.56 mg/kg/injection, schedule: Q01DX009 (ip), vehicle: saline
  T/C: 125 % of control
dose: 25.0 mg/kg/injection, schedule: Q01DX009 (ip), vehicle: saline
  survivor count: 1 of 3
[2]
  survivor count: 0 of 3

## C=C(C)C12OC3(c4ccccc4)OC1C1C4OC4(CO)C(O)C4(O)C(=O)C(C)=CC4C1(O3)C(C)C2OC(=O)/C=C/c1ccccc1 (stereo unspecified)
dose: 400.0 micrograms/kg/injection, schedule: Q## X009 (ip), vehicle: saline + alcohol
  survivor count: 6 of 6

## CCN(CC)CCNc1ccc(C)c2sc3ccccc3c(=O)c12
[13]
  T/C: 127 and 140 % of control
[2]
  T/C: 145 % of control
[14]
  T/C: 140 % of control
dose: 200.0 mg/kg/injection, schedule: Q01DX009 (ip), vehicle: saline
  survivor count: 2 of 6
[15]
  survivor count: 6 of 6

## O=CC(S)CO (stereo unspecified)
[13]
  T/C: 133 % of control
dose: 50.0 mg/kg/injection, schedule: Q01DX010 (ip), vehicle: saline
  T/C: 125 % of control
[14]
  T/C: 129 % of control
dose: 200.0 mg/kg/injection, schedule: Q01DX010 (ip), vehicle: carboxymethylcellulose (CMC)
  T/C: 133 % of control
[15]
  T/C: 133 % of control
dose: 400.0 mg/kg/injection, schedule: Q01DX010 (ip), vehicle: carboxymethylcellulose (CMC)
  survivor count: 0 of 6

## S=C(Nc1ccccn1)Nc1ccccn1
[16]
  T/C: 126 % of control

## FC(F)(F)c1nc2cccc3c2n1CCC3
dose: 200.0 mg/kg/injection, schedule: Q04DX003 (ip), vehicle: saline with Tween-80
  survivor count: 6 of 6

## O=C1/C(=C/c2cccc([N+](=O)[O-])c2)CCc2ccccc21
[6]
  survivor count: 6 of 6
[16]
  survivor count: 6 of 6

## Nc1nc(N)c2c(n1)CCC(S(=O)(=O)c1ccc3ccccc3c1)C2 (stereo unspecified)
[9]
  T/C: 140 % of control
[1]
  T/C: 134 % of control [5 of 6 alive]

## CCN(CC)CCOC(=O)c1ccc(NC(=O)Nc2ccc(C(=O)OCCN(CC)CC)cc2)cc1
[9]
  survivor count: 0 of 6
[1]
  survivor count: 0 of 6

## COc1cc2c(c(OC)c1OC)-c1ccc(O)cc1[C@@H](NC(C)=O)CC2
dose: 17.5 mg/kg/injection, schedule: Q01DX010 (ip), vehicle: other
  survivor count: 6 of 6
dose: 35.0 mg/kg/injection, schedule: Q01DX010 (ip), vehicle: other
  survivor count: 6 of 6

## Nc1ccc(CCCCc2ccc(Cl)cc2Cl)cc1
dose: 225.0 mg/kg/injection, schedule: Q01DX009 (ip), vehicle: saline
  survivor count: 2 of 6
dose: 335.0 mg/kg/injection, schedule: Q01DX009 (ip), vehicle: saline
  survivor count: 0 of 6
[5]
  survivor count: 6 of 6

## C=C(Cl)CSCC
dose: 50.0 mg/kg/injection, schedule: Q01DX009 (ip), vehicle: acetone
  survivor count: 1 of 6
dose: 180.0 mg/kg/injection, schedule: Q01DX001 (ip), vehicle: saline
  survivor count: 2 of 6

## NC(=O)Oc1cc(OC(N)=O)cc(N(CCCl)CCCl)c1
[8]
  T/C: 126 % of control
dose: 200.0 mg/kg/injection, schedule: Q04DX003 (ip), vehicle: other
  survivor count: 6 of 6
dose: 400.0 mg/kg/injection, schedule: Q04DX003 (ip), vehicle: other
  survivor count: 6 of 6

## NC(N)=Nc1ccc(C(=O)Nc2ccc([N+](=O)[O-])cc2)cc1
[7]
  survivor count: 4 of 6

## CC(=O)Nc1c2sscc-2n(C)c1=O
dose: 1.56 mg/kg/injection, schedule: Q01DX009 (ip), vehicle: saline with Tween-80
  survivor count: 1 of 6
dose: 3.13 mg/kg/injection, schedule: Q01DX009 (ip), vehicle: saline with Tween-80
  survivor count: 1 of 6

## Cn1cnccc1=O
[10]
  T/C: 125 % of control
